# Laboratory results published in the supplement of paper PMC8728848.
# The list shows a part of the results.
# B1: Gs78B-bfa-542-29-542 (Bacteroides fragilis) (protein)
# chain: SEDINRNPLLPTKEDEKMDGVIYGAYLPNLEKSVIPIGTASESTEPVNRYQIGVNLAGDAWAGYMSPRDNKFNGSKNFTNYFMYENWVNYVYSFMVTDVYSPWMQIKRISQDEGTRNDEIYALAQIIKIAALHRTTDMFGPIPYSQVGKGSFKVAYDSQESVYRSFLKELEEAVQTLDDYSNKSKEVLPAFDIVYNGDVNKWMRFANSLMLRLAIRVRFADAGLAKEYAEKAVKHPAGLINSKELAAQMGKGAGLQMKNPLKVINEEYNDTRMGATIYSYLAGYNDARAAVYFVKNNGFKAVRCGIAKSGDAYNGFTRPNVHEDDPLYWMKASEVCFLKAEGALAGFDMGGSAGDFYNAGIRMSFSENGLDNSSAETYLKDSTRKPANYTDTSNGELSANAPSSITIRWENGATEEEKLERIITQKYLAIFPNGQEAWTEWRRTGYPRQIVVAENKTNSAVLIGNGYDLGGVRRLPYPRTEYEQNGENLHNAISQYLGGVDNAATKVWWDKKSK
# Assays:
# Assay in all cases: glycan array binding signal (z-score within array); higher = stronger binding
# Conditions in all cases: glycan notation: IUPAC condensed, linker removed
# [1] = target: Fuc(a1-2)Gal6S(b1-3)GlcNAc6S
# In short: (§1)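 Glycan array data were curated from 3228 arrays in the Consortium for Functional Glycomics database and kept only where the protein sequence was available. Glycan names were converted to IUPAC-condensed notation, and columns mapping to the same glycan were averaged. The binding signal is a within-array Z-score, averaged across arrays of the same protein sequence at different concentrations or buffers and across linkers. Negative Z-scores can be read as non-binding.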
# Fuc(a1-2)Gal6S(b1-4)Glc = target: Fuc(a1-2)Gal6S(b1-4)Glc
# In short: as §1
# [2] = target: Fuc(a1-2)Gal6S(b1-4)Glc6S
# In short: as §1
# Fuc(a1-2)[Gal(a1-3)]Gal = target: Fuc(a1-2)[Gal(a1-3)]Gal
# In short: as §1
# [3] = target: Fuc(a1-2)[Gal(a1-3)]Gal(b1-3)GalNAc
# In short: as §1
# [4] = target: Fuc(a1-2)[Gal(a1-3)]Gal(b1-3)GalNAc(b1-3)Gal(a1-4)Gal(b1-4)Glc
# In short: as §1
# [5] = target: Fuc(a1-2)[Gal(a1-3)]Gal(b1-3)GlcNAc
# In short: as §1
# [6] = target: Fuc(a1-2)[Gal(a1-3)]Gal(b1-3)GlcNAc(b1-2)Man(a1-3)[Fuc(a1-2)[Gal(a1-3)]Gal(b1-3)GlcNAc(b1-2)Man(a1-6)]Man(b1-4)GlcNAc(b1-4)GlcNAc
# In short: as §1
# [7] = target: Fuc(a1-2)[Gal(a1-3)]Gal(b1-3)GlcNAc(b1-2)Man(a1-3)[Fuc(a1-2)[Gal(a1-3)]Gal(b1-3)GlcNAc(b1-2)Man(a1-6)]Man(b1-4)GlcNAc(b1-4)[Fuc(a1-6)]GlcNAc
# In short: as §1
# [8] = target: Fuc(a1-2)[Gal(a1-3)]Gal(b1-3)GlcNAc(b1-3)GalNAc
# In short: as §1
# [9] = target: Fuc(a1-2)[Gal(a1-3)]Gal(b1-3)GlcNAc(b1-6)GalNAc
# In short: as §1
# [10] = target: Fuc(a1-2)[Gal(a1-3)]Gal(b1-4)Glc
# In short: as §1
# [11] = target: Fuc(a1-2)[Gal(a1-3)]Gal(b1-4)GlcNAc
# In short: as §1
# [12] = target: Fuc(a1-2)[Gal(a1-3)]Gal(b1-4)GlcNAc(b1-2)Man
# In short: as §1
# [13] = target: Fuc(a1-2)[Gal(a1-3)]Gal(b1-4)GlcNAc(b1-2)Man(a1-3)[Fuc(a1-2)[Gal(a1-3)]Gal(b1-4)GlcNAc(b1-2)Man(a1-6)]Man(b1-4)GlcNAc(b1-4)GlcNAc
# In short: as §1
# [14] = target: Fuc(a1-2)[Gal(a1-3)]Gal(b1-4)GlcNAc(b1-2)Man(a1-3)[Fuc(a1-2)[Gal(a1-3)]Gal(b1-4)GlcNAc(b1-2)Man(a1-6)]Man(b1-4)GlcNAc(b1-4)[Fuc(a1-6)]GlcNAc
# In short: as §1
# [15] = target: Fuc(a1-2)[Gal(a1-3)]Gal(b1-4)GlcNAc(b1-3)GalNAc
# In short: as §1
# [16] = target: Fuc(a1-2)[Gal(a1-3)]Gal(b1-4)GlcNAc(b1-3)[Fuc(a1-2)[Gal(a1-3)]Gal(b1-4)GlcNAc(b1-6)]GalNAc
# In short: as §1
# [17] = target: Fuc(a1-2)[Gal(a1-3)]Gal(b1-4)GlcNAc(b1-6)GalNAc
# In short: as §1
# [18] = target: Fuc(a1-2)[Gal(a1-3)]Gal(b1-4)[Fuc(a1-3)]Glc
# In short: as §1
# [19] = target: Fuc(a1-2)[Gal(a1-3)]Gal(b1-4)[Fuc(a1-3)]GlcNAc
# In short: as §1
# [20] = target: Fuc(a1-2)[Gal(a1-3)]Gal(b1-4)[Fuc(a1-3)]GlcNAc(b1-3)GalNAc
# In short: as §1
# [21] = target: Fuc(a1-2)[Gal(a1-4)]Gal(b1-4)GlcNAc
# In short: as §1
# [22] = target: Fuc(a1-2)[GalNAc(a1-3)]Gal
# In short: as §1
# [23] = target: Fuc(a1-2)[GalNAc(a1-3)]Gal(b1-3)GalNAc(a1-3)[Fuc(a1-2)]Gal(b1-4)GlcNAc
# In short: as §1
# [24] = target: Fuc(a1-2)[GalNAc(a1-3)]Gal(b1-3)GalNAc(b1-3)Gal(a1-4)Gal(b1-4)Glc
# In short: as §1
# [25] = target: Fuc(a1-2)[GalNAc(a1-3)]Gal(b1-3)GlcNAc
# In short: as §1
# [26] = target: Fuc(a1-2)[GalNAc(a1-3)]Gal(b1-3)GlcNAc(b1-2)Man(a1-3)[Fuc(a1-2)[GalNAc(a1-3)]Gal(b1-3)GlcNAc(b1-2)Man(a1-6)]Man(b1-4)GlcNAc(b1-4)GlcNAc
# In short: as §1
# [27] = target: Fuc(a1-2)[GalNAc(a1-3)]Gal(b1-3)GlcNAc(b1-2)Man(a1-3)[Fuc(a1-2)[GalNAc(a1-3)]Gal(b1-3)GlcNAc(b1-2)Man(a1-6)]Man(b1-4)GlcNAc(b1-4)[Fuc(a1-6)]GlcNAc
# In short: as §1
# [28] = target: Fuc(a1-2)[GalNAc(a1-3)]Gal(b1-3)GlcNAc(b1-3)GalNAc
# In short: as §1
# [29] = target: Fuc(a1-2)[GalNAc(a1-3)]Gal(b1-3)GlcNAc(b1-6)GalNAc
# In short: as §1
# [30] = target: Fuc(a1-2)[GalNAc(a1-3)]Gal(b1-4)Glc
# In short: as §1
# [31] = target: Fuc(a1-2)[GalNAc(a1-3)]Gal(b1-4)GlcNAc
# In short: as §1
# [32] = target: Fuc(a1-2)[GalNAc(a1-3)]Gal(b1-4)GlcNAc(b1-2)Man
# In short: as §1
# [33] = target: Fuc(a1-2)[GalNAc(a1-3)]Gal(b1-4)GlcNAc(b1-2)Man(a1-3)[Fuc(a1-2)[GalNAc(a1-3)]Gal(b1-4)GlcNAc(b1-2)Man(a1-6)]Man(b1-4)GlcNAc(b1-4)GlcNAc
# In short: as §1
# [34] = target: Fuc(a1-2)[GalNAc(a1-3)]Gal(b1-4)GlcNAc(b1-2)Man(a1-3)[Fuc(a1-2)[GalNAc(a1-3)]Gal(b1-4)GlcNAc(b1-2)Man(a1-6)]Man(b1-4)GlcNAc(b1-4)[Fuc(a1-6)]GlcNAc
# In short: as §1
# [35] = target: Fuc(a1-2)[GalNAc(a1-3)]Gal(b1-4)GlcNAc(b1-3)Gal(b1-4)GlcNAc
# In short: as §1
# [36] = target: Fuc(a1-2)[GalNAc(a1-3)]Gal(b1-4)GlcNAc(b1-3)Gal(b1-4)GlcNAc(b1-3)Gal(b1-4)GlcNAc
# In short: as §1
# [37] = target: Fuc(a1-2)[GalNAc(a1-3)]Gal(b1-4)GlcNAc(b1-3)GalNAc
# In short: as §1
# [38] = target: Fuc(a1-2)[GalNAc(a1-3)]Gal(b1-4)GlcNAc(b1-3)[Fuc(a1-2)[GalNAc(a1-3)]Gal(b1-4)GlcNAc(b1-6)]GalNAc
# In short: as §1
# [39] = target: Fuc(a1-2)[GalNAc(a1-3)]Gal(b1-4)GlcNAc(b1-6)GalNAc
# In short: as §1
# [40] = target: Fuc(a1-2)[GalNAc(a1-3)]Gal(b1-4)[Fuc(a1-3)]GlcNAc
# In short: as §1
# [41] = target: Fuc(a1-2)[GalNAc(a1-3)]Gal(b1-4)[Fuc(a1-3)]GlcNAc(b1-3)GalNAc
# In short: as §1
# [42] = target: Fuc(a1-2)[GalNAc(a1-4)]Gal(b1-4)GlcNAc
# In short: as §1
# [43] = target: Fuc(a1-2)[GalNAc(b1-3)]Gal
# In short: as §1
binder,measurement,setting,value
B1,glycan array binding signal (z-score),[1],-0.759
same,glycan array binding signal (z-score),Fuc(a1-2)Gal6S(b1-4)Glc,2.11
same,glycan array binding signal (z-score),[2],-0.77
same,glycan array binding signal (z-score),Fuc(a1-2)[Gal(a1-3)]Gal,-0.238
same,glycan array binding signal (z-score),[3],-0.668
same,glycan array binding signal (z-score),[4],-0.824
same,glycan array binding signal (z-score),[5],-0.842
same,glycan array binding signal (z-score),[6],0.252
same,glycan array binding signal (z-score),[7],-0.049
same,glycan array binding signal (z-score),[8],-0.767
same,glycan array binding signal (z-score),[9],2.8
same,glycan array binding signal (z-score),[10],-0.72
same,glycan array binding signal (z-score),[11],-0.832
same,glycan array binding signal (z-score),[12],0.376
same,glycan array binding signal (z-score),[13],1.22
same,glycan array binding signal (z-score),[14],1.74
same,glycan array binding signal (z-score),[15],0.185
same,glycan array binding signal (z-score),[16],1.65
same,glycan array binding signal (z-score),[17],-0.852
same,glycan array binding signal (z-score),[18],-0.824
same,glycan array binding signal (z-score),[19],-0.73
same,glycan array binding signal (z-score),[20],-0.216
same,glycan array binding signal (z-score),[21],1.44
same,glycan array binding signal (z-score),[22],-0.701
same,glycan array binding signal (z-score),[23],0.134
same,glycan array binding signal (z-score),[24],-0.827
same,glycan array binding signal (z-score),[25],-0.729
same,glycan array binding signal (z-score),[26],0.203
same,glycan array binding signal (z-score),[27],-0.055
same,glycan array binding signal (z-score),[28],0.382
same,glycan array binding signal (z-score),[29],1.11
same,glycan array binding signal (z-score),[30],-0.713
same,glycan array binding signal (z-score),[31],-0.665
same,glycan array binding signal (z-score),[32],-0.657
same,glycan array binding signal (z-score),[33],0.275
same,glycan array binding signal (z-score),[34],0.952
same,glycan array binding signal (z-score),[35],0.818
same,glycan array binding signal (z-score),[36],1.31
same,glycan array binding signal (z-score),[37],-0.769
same,glycan array binding signal (z-score),[38],2.02
same,glycan array binding signal (z-score),[39],-0.583
same,glycan array binding signal (z-score),[40],1.53
same,glycan array binding signal (z-score),[41],1.75
same,glycan array binding signal (z-score),[42],0.651
same,glycan array binding signal (z-score),[43],-0.587

# Nothing new here: entries from further up.
binder,measurement,setting,value
B1,glycan array binding signal (z-score),[39],-0.583
same,glycan array binding signal (z-score),[40],1.53
same,glycan array binding signal (z-score),[41],1.75
